According to paper PMC9065108:
These are yes or no findings as the source states them, for the method shown. In cells and extracts the contact can be indirect. Some entries that bind do so weakly or less than the wild type.

Target: ferritin heavy chain (FTH), endogenous in U2OS cells (human (endogenous in U2OS)) (UniProt P02794)
Test: co-IP; lysates of U2OS cells (untreated or treated with OSMI-1 or TMG for 24 h; OGT or OGA knock-down), IP lysis buffer (20 mM Tris-HCl, 150 mM NaCl, 1% NP-40, pH 7.5), antibodies against NCOA4, FTH or OGT and IgG with Protein A/G beads, 4 °C for 4 h, immunoblot

binding: binds
B1: O-GlcNAc transferase (OGT), endogenous in U2OS cells (enzyme, UniProt O15294 1-1046)
chain: MASSVGNVADSTEPTKRMLSFQGLAELAHREYQAGDFEAAERHCMQLWRQEPDNTGVLLLLSSIHFQCRRLDRSAHFSTLAIKQNPLLAEAYSNLGNVYKERGQLQEAIEHYRHALRLKPDFIDGYINLAAALVAAGDMEGAVQAYVSALQYNPDLYCVRSDLGNLLKALGRLEEAKACYLKAIETQPNFAVAWSNLGCVFNAQGEIWLAIHHFEKAVTLDPNFLDAYINLGNVLKEARIFDRAVAAYLRALSLSPNHAVVHGNLACVYYEQGLIDLAIDTYRRAIELQPHFPDAYCNLANALKEKGSVAEAEDCYNTALRLCPTHADSLNNLANIKREQGNIEEAVRLYRKALEVFPEFAAAHSNLASVLQQQGKLQEALMHYKEAIRISPTFADAYSNMGNTLKEMQDVQGALQCYTRAIQINPAFADAHSNLASIHKDSGNIPEAIASYRTALKLKPDFPDAYCNLAHCLQIVCDWTDYDERMKKLVSIVADQLEKNRLPSVHPHHSMLYPLSHGFRKAIAERHGNLCLDKINVLHKPPYEHPKDLKLSDGRLRVGYVSSDFGNHPTSHLMQSIPGMHNPDKFEVFCYALSPDDGTNFRVKVMAEANHFIDLSQIPCNGKAADRIHQDGIHILVNMNGYTKGARNELFALRPAPIQAMWLGYPGTSGALFMDYIITDQETSPAEVAEQYSEKLAYMPHTFFIGDHANMFPHLKKKAVIDFKSNGHIYDNRIVLNGIDLKAFLDSLPDVKIVKMKCPDGGDNADSSNTALNMPVIPMNTIAEAVIEMINRGQIQITINGFSISNGLATTQINNKAATGEEVPRTIIVTTRSQYGLPEDAIVYCNFNQLYKIDPSTLQMWANILKRVPNSVLWLLRFPAVGEPNIQQYAQNMGLPQNRIIFSPVAPKEEHVRRGQLADVCLDTPLCNGHTTGMDVLWAGTPMVTMPGETLASRVAASQLTCLGCLELIAKNRQEYEDIAVKLGTDLEYLKKVRGKVWKQRISSPLFNTKQYTMELERLYLQMWEHYAAGNKPDHMIKPVEVTESA
